Results published in article doi:10.1101/641977.
These are yes or no findings as the source states them, for the method shown. For part of these data: Binding seen in cells or lysates may run through a third protein. Some binding calls cover weakened binding; strength is not graded here.

By UniProt entry, the sequences of proteins in these tests, tags left out. Residues count along the entry.
UniProt Q15910, whole entry: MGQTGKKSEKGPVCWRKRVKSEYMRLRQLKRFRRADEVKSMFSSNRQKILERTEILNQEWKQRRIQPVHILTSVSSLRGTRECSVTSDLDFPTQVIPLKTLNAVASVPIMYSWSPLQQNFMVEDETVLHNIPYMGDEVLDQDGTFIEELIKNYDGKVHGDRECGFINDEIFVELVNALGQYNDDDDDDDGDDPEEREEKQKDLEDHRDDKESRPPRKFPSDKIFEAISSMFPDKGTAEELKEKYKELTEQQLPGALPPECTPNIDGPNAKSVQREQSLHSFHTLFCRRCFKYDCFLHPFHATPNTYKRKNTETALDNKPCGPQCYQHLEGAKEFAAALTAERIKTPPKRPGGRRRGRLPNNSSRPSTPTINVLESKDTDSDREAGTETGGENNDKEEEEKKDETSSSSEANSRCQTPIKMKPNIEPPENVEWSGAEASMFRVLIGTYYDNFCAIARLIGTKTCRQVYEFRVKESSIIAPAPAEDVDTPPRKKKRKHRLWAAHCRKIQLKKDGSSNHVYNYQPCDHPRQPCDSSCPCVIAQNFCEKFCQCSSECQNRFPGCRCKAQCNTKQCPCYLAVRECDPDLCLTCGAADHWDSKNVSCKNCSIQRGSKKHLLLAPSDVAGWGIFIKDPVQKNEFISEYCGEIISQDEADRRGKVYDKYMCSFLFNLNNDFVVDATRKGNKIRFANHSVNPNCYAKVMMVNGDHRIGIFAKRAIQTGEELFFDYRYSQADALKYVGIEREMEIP
UniProt Q15910, 1-173: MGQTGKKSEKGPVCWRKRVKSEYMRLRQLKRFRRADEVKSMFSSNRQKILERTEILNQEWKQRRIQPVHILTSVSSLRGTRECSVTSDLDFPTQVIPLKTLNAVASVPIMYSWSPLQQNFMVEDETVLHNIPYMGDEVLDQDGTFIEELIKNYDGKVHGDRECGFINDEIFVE
UniProt Q93009, whole entry: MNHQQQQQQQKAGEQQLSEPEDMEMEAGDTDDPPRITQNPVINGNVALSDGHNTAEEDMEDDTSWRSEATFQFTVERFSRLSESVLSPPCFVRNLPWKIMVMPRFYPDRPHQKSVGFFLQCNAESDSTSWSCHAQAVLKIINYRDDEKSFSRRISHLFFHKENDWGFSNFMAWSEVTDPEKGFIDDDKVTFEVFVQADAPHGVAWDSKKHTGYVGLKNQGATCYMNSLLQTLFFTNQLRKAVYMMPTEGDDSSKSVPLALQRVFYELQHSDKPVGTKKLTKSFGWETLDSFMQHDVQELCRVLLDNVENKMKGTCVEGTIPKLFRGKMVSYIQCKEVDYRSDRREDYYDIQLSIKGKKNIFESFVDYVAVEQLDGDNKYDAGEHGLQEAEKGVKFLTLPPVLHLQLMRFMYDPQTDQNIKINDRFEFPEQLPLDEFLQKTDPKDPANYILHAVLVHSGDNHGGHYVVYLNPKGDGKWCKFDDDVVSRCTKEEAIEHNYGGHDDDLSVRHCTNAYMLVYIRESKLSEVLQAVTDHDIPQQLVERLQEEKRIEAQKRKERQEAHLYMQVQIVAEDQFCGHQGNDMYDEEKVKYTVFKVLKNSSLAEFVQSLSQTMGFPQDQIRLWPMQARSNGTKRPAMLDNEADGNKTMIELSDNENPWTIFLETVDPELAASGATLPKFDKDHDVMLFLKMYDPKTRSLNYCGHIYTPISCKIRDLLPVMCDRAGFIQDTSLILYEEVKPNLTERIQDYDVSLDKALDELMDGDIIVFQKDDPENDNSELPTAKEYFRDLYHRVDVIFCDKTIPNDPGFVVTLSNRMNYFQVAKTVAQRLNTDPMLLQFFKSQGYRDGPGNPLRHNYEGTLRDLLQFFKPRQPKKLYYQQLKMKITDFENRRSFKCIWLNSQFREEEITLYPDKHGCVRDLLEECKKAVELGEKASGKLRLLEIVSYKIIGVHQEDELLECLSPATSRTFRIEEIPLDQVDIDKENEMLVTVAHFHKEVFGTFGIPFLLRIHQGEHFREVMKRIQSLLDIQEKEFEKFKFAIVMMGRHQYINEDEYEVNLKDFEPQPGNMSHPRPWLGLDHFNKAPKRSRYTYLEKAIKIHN
UniProt Q15022, whole entry: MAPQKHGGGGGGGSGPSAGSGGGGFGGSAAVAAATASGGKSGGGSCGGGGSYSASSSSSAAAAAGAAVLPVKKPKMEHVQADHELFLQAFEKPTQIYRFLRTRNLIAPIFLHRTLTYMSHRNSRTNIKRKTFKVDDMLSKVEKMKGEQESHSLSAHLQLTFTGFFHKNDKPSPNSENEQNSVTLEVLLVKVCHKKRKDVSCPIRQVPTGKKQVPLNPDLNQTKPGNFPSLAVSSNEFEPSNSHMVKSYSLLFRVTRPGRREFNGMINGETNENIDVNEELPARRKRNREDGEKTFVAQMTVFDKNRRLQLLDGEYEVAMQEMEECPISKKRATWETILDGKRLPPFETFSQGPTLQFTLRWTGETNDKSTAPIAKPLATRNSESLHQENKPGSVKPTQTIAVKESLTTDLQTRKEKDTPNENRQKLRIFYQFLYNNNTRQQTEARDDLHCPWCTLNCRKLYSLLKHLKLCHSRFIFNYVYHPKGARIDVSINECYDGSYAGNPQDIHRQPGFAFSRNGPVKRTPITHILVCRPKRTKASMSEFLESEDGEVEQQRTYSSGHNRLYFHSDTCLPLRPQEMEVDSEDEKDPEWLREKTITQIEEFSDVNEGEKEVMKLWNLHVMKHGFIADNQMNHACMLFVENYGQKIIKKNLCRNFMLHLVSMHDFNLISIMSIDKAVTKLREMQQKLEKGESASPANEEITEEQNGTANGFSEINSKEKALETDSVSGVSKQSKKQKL
UniProt O75530, whole entry: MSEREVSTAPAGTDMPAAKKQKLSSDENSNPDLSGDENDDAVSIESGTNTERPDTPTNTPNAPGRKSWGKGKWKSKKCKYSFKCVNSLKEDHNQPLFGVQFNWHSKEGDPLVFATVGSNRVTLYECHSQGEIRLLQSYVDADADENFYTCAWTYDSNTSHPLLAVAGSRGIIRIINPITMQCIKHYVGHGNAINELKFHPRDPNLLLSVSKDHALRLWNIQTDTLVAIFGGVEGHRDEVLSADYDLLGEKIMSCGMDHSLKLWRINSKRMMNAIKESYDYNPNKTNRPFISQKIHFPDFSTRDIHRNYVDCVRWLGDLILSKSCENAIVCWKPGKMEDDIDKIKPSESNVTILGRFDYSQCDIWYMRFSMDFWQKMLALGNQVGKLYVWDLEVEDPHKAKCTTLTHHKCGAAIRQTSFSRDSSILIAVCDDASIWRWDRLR

What was measured:
[1] = biological target: GST-fused EZH2 N1 domain (aa 1-173) (UniProt Q15910); assay: pull-down
[2] = biological target: enhancer of zeste homolog 2 (EZH2), endogenous (human (endogenous in A375 and HEK293T)) (UniProt Q15910); assay: co-IP
[3] = biological target: enhancer of zeste homolog 2 (EZH2), endogenous (human (endogenous in A375 and HEK293T)) (UniProt Q15910); assay: SEC
[4] = biological target: His-tagged full-length USP7/WT purified from Sf9 cells (UniProt Q93009); assay: pull-down

binding [4] | Substance | further results
– | in vitro-transcribed/translated FLAG-USP7 (from UniProt Q93009 1-1102) (enzyme) | binding [1]: binds
– | ubiquitin-specific protease 7 (USP7), endogenous (from UniProt Q93009 1-1102) (enzyme) | binding [2]: binds; binding [3]: binds
no binding | recombinant SUZ12, in vitro-transcribed/translated (from UniProt Q15022 1-739) | –
binds | recombinant EZH2, in vitro-transcribed/translated (from UniProt Q15910-2 1-751) | –
no binding | recombinant EED, in vitro-transcribed/translated (from UniProt O75530 1-441) | –
